Results from patent US8912144B2, “Method for treating stroke via administration of NEP1-40 and inosine” (Children's Medical Center Corporation, priority 2003, dated 2014).
The source gives many values for each of these; only a part stands here.

Tested on: corticospinal neurons (CSNs/CSMNs)
Experiment: Laser-capture microdissection and Illumina microarray gene expression in corticospinal neurons contralateral to stroke
Assay type: in vivo, rat
Procedure: In a separate group of animals (n=20), layer V pyramidal cells of the sensorimotor cortex were retrogradely labeled by injecting Alexa-Fluor-488-conjugated cholera toxin B subunit (CTB; 300 U/μl in sterile saline) into the cervical spinal cord. For this, animals were anesthetized with a combination of ketamine and Domitor (medetomidine) and a laminectomy was performed at the cervical level of the spinal cord (C2-C4). CTB was stereotaxically delivered into four sites lateral to the corticospinal tract. Injections (1.3 μl) were spaced 1 mm apart on the rostro-caudal axis, and were made 0.5 mm to the left and right of the midline. After allowing two weeks for transport of the tracer, we performed either sham surgery with no treatment (n=6) or stroke surgery combined with saline (n=3) or inosine (n=4) treatment as described above. Seven days later, animals were decapitated under transient gas anesthesia, brains were removed and rinsed in cold RPMI medium, and a tissue block containing the sensorimotor cortex was dissected and placed in OCT Tissue Tek Medium (Sakura Finetek USA Inc., CA) on dry ice within five minutes of death. Ten μm sections were cut onto precleaned Gold Seal RITE-ON glass slides (Gold Seal Prod-ucts, Portsmouth, N.H.), placed on dry ice, and rapidly stored at −80° C.
Slide-mounted sections were thawed and dehydrated in RNAse-free ethanol gradients and xylene. Retro-gradely labeled, fluorescent cortical pyramidal cells in the undamaged hemisphere were individually captured using the Arcturus VERITAS system. ≧500 cells were collected from each animal and stored in Arcturus extraction buffer at −80° C. Total RNA was extracted from cells using the Micro-to-Midi TotalRNA Purification System (Invitrogen, Carlsbad Calif.) and double-amplified using the TargetAmp 2-Round Aminoallyl-aRNA Amplification kit 1.0 (Epicentre, Madison, Wis.). Amplified RNA was checked for average fragment length using the Agilent RNA 6000 Nano LabChip kit (Agilent Technologies, Santa Clara, Calif.) and then biotinylated and hybridized (1 μg) on Illumina RatRef-12 Expression BeadChip arrays (Illumina, San Diego Calif.), querying the expression of >22,000 RefSeq-curated rat transcripts. Results were obtained from a total of 15 samples representing 6 untreated controls, 4 animals with stroke treated with saline and 5 animals with stroke treated with inosine. Slides were processed and scanned with Illumina BeadStation platform according to the manufacturer protocol.
Raw data was analyzed using Bioconductor packages (www.bioconductor.org, (Gentleman et al., 2004)). Low level quality-control analysis was performed using inter-array Pearson correlation and clustering based on variance. Two arrays (1 saline and 1 inosine-treated) were outliers and were excluded from the analysis. Data was normalized using quantile normalization, and analysis of differential expression was performed using a linear model fitting (LIMMA package, (Smyth, 2005). Differentially expressed genes were classified according to gene ontology using Bioconductor packages and online tools (DAVID, http://david.abcc.ncifcrf.gov/). Pathway analysis was carried out using Ingenuity Pathway Analysis (Ingenuity Systems, www.ingenuity.com).

[1] = 39332 ILMN_56430, septin 7 (Sept7)

OC[C@H]1O[C@@H](n2cnc3c(O)ncnc32)[C@H](O)[C@@H]1O [inosine]
Fold-Induction Stroke, ino vs. cntrl [1]: 0.35
Signal Intensity Inosine [1]: 226
Fold-Induction Stroke, ino vs. cntrl (1200013a08rik ILMN_48533): 1.87
Signal Intensity Inosine (1200013a08rik ILMN_48533): 641
Fold-Induction Stroke, ino vs. cntrl (Ak3 ILMN_61494): 0.53
Signal Intensity Inosine (Ak3 ILMN_61494): 452
Fold-Induction Stroke, ino vs. cntrl (Arhgef9 ILMN_63975): 0.37
Signal Intensity Inosine (Arhgef9 ILMN_63975): 994
Fold-Induction Stroke, ino vs. cntrl (Bf ILMN_69719): 2.37
Signal Intensity Inosine (Bf ILMN_69719): 1589
Fold-Induction Stroke, ino vs. cntrl (Bnip3 ILMN_56273): 0.20
Signal Intensity Inosine (Bnip3 ILMN_56273): 326
Fold-Induction Stroke, ino vs. cntrl (Bzrp ILMN_55731): 2.23
Signal Intensity Inosine (Bzrp ILMN_55731): 865
Fold-Induction Stroke, ino vs. cntrl (C1qa ILMN_58496): 1.70
Signal Intensity Inosine (C1qa ILMN_58496): 1561
Fold-Induction Stroke, ino vs. cntrl (C1s ILMN_55706): 2.19
Signal Intensity Inosine (C1s ILMN_55706): 668
Fold-Induction Stroke, ino vs. cntrl (Cacna2d1 ILMN_48911): 0.27
Signal Intensity Inosine (Cacna2d1 ILMN_48911): 1708
Fold-Induction Stroke, ino vs. cntrl (Ccpg1 ILMN_52890): 0.41
Signal Intensity Inosine (Ccpg1 ILMN_52890): 228
Fold-Induction Stroke, ino vs. cntrl (Cd47 ILMN_64241): 0.26
Signal Intensity Inosine (Cd47 ILMN_64241): 831
Fold-Induction Stroke, ino vs. cntrl (Cd63 ILMN_67382): 2.32
Signal Intensity Inosine (Cd63 ILMN_67382): 1687
Fold-Induction Stroke, ino vs. cntrl (Chc1l ILMN_62729): 1.94
Signal Intensity Inosine (Chc1l ILMN_62729): 696
Fold-Induction Stroke, ino vs. cntrl (Col1a2 ILMN_52596): 2.32
Signal Intensity Inosine (Col1a2 ILMN_52596): 2071
Fold-Induction Stroke, ino vs. cntrl (Col6a3 ILMN_66976): 2.15
Signal Intensity Inosine (Col6a3 ILMN_66976): 1052
Fold-Induction Stroke, ino vs. cntrl (Dnase2 ILMN_59943): 2.08
Signal Intensity Inosine (Dnase2 ILMN_59943): 778
Fold-Induction Stroke, ino vs. cntrl (Dscam ILMN_54925): 0.64
Signal Intensity Inosine (Dscam ILMN_54925): 227
Fold-Induction Stroke, ino vs. cntrl (Emp3 ILMN_59412): 2.12
Signal Intensity Inosine (Emp3 ILMN_59412): 733
Fold-Induction Stroke, ino vs. cntrl (Fcgr3a ILMN_55414): 2.55
Signal Intensity Inosine (Fcgr3a ILMN_55414): 596
Fold-Induction Stroke, ino vs. cntrl (Fcgrt ILMN_69907): 1.88
Signal Intensity Inosine (Fcgrt ILMN_69907): 1201
Fold-Induction Stroke, ino vs. cntrl (Gars ILMN_61248): 0.41
Signal Intensity Inosine (Gars ILMN_61248): 1274
Fold-Induction Stroke, ino vs. cntrl (Gda ILMN_65816): 0.44
Signal Intensity Inosine (Gda ILMN_65816): 1087
Fold-Induction Stroke, ino vs. cntrl (Glg1 ILMN_68750): 0.50
Signal Intensity Inosine (Glg1 ILMN_68750): 226
Fold-Induction Stroke, ino vs. cntrl (Gp38 ILMN_58188): 1.74
Signal Intensity Inosine (Gp38 ILMN_58188): 5501
Fold-Induction Stroke, ino vs. cntrl (Icam1 ILMN_61139): 2.46
Signal Intensity Inosine (Icam1 ILMN_61139): 761
Fold-Induction Stroke, ino vs. cntrl (Irf1 ILMN_53085): 1.76
Signal Intensity Inosine (Irf1 ILMN_53085): 1048
Fold-Induction Stroke, ino vs. cntrl (Irf5 ILMN_66407): 2.25
Signal Intensity Inosine (Irf5 ILMN_66407): 662
Fold-Induction Stroke, ino vs. cntrl (Jak3 ILMN_63407): 2.17
Signal Intensity Inosine (Jak3 ILMN_63407): 1204
Fold-Induction Stroke, ino vs. cntrl (LOC287596 ILMN_65519): 0.49
Signal Intensity Inosine (LOC287596 ILMN_65519): 330
Fold-Induction Stroke, ino vs. cntrl (LOC290851 ILMN_52399): 1.60
Signal Intensity Inosine (LOC290851 ILMN_52399): 1691
Fold-Induction Stroke, ino vs. cntrl (LOC293566 ILMN_66756): 2.35
Signal Intensity Inosine (LOC293566 ILMN_66756): 541
Fold-Induction Stroke, ino vs. cntrl (LOC302671 ILMN_50309): 0.61
Signal Intensity Inosine (LOC302671 ILMN_50309): 919
Fold-Induction Stroke, ino vs. cntrl (LOC303731 ILMN_62940): 1.98
Signal Intensity Inosine (LOC303731 ILMN_62940): 619
Fold-Induction Stroke, ino vs. cntrl (LOC309014 ILMN_60231): 0.58
Signal Intensity Inosine (LOC309014 ILMN_60231): 232
Fold-Induction Stroke, ino vs. cntrl (LOC311236 ILMN_59008): 0.47
Signal Intensity Inosine (LOC311236 ILMN_59008): 1008
Fold-Induction Stroke, ino vs. cntrl (LOC315776 ILMN_50631): 1.48
Signal Intensity Inosine (LOC315776 ILMN_50631): 718
Fold-Induction Stroke, ino vs. cntrl (LOC361594 ILMN_52177): 1.90
Signal Intensity Inosine (LOC361594 ILMN_52177): 880
Fold-Induction Stroke, ino vs. cntrl (LOC497712 ILMN_50828): 0.43
Signal Intensity Inosine (LOC497712 ILMN_50828): 314
Fold-Induction Stroke, ino vs. cntrl (LOC498726 ILMN_51854): 0.46
